Test results published in PMC8840930.
These are yes or no findings as the source states them, for the method shown. Binding seen in cells or lysates may run through a third protein. Binding can be weak; no strength is given.

By UniProt entry, the sequences of proteins in these tests, tags left out. Where a name states a change or a piece, a line headed by the entry shows the natural chain unless it says otherwise.
UniProt Q9Y2R2: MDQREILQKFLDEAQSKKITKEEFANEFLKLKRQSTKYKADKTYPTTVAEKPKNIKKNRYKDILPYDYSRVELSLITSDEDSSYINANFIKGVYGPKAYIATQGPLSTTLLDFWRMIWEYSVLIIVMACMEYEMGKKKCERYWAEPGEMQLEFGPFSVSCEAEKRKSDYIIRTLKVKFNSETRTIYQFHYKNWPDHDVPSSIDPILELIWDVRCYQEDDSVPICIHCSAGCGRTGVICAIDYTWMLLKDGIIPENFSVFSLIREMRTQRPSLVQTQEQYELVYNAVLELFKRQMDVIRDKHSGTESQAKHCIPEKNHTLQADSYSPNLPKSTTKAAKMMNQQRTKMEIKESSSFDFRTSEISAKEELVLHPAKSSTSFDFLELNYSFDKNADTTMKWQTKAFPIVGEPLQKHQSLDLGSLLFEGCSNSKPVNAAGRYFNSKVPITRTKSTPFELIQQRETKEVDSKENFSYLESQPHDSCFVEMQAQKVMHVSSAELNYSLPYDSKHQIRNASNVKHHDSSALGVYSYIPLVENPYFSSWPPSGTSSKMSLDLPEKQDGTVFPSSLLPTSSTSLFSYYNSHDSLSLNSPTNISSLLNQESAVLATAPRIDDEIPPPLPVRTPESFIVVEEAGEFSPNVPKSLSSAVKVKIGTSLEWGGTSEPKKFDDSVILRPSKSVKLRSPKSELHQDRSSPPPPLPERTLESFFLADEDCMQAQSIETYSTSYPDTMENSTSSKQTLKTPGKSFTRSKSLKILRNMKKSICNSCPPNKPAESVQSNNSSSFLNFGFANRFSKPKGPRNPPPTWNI
UniProt O43586: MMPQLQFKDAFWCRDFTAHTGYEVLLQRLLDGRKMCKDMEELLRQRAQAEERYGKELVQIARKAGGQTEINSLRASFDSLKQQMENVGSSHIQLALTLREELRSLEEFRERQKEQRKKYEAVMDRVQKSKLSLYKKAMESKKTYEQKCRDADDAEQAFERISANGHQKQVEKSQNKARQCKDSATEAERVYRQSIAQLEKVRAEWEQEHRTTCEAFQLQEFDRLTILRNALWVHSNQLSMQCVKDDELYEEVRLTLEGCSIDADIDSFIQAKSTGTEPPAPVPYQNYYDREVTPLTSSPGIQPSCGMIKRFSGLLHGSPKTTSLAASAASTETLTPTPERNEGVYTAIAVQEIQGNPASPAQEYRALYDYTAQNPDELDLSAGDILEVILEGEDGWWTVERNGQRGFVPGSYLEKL

Target: 3xmyc-LYP (human) (UniProt Q9Y2R2)
Assay: co-IP; HEK293 cells co-transfected with PSTPIP1-V5 (wild type or mutant) and 3xmyc-LYP; TNE lysis buffer with 1% NP-40; immunoprecipitation with myc antibody, immunoblot for the V5 epitope

binding: binds
Substance: PSTPIP1-V5 D279H (from UniProt O43586)
